Test system: endogenous taurine transporter in COS cells
Test: [3H]taurine uptake by non-transfected COS-7 cells (control)
Format: cell-based
Conditions: 50 nM [3H]taurine, 10 minutes, 37° C.

NCCCC(=O)O [GABA, gamma-aminobutyric acid]
% Inhibition of [3H]taurine uptake, control (inhibitor 10 μM): 1 ± 1 (4) %
% Inhibition of [3H]taurine uptake, control (inhibitor 100 μM): 9 ± 4 (6) %
% Inhibition of [3H]taurine uptake, control (inhibitor 1 mM): 49 ± 2 (5) %

From patent US20030143729A1 (Synaptic Pharmaceutical Corporation, priority 1992, published 2003)
